Laboratory results: PubChem BioAssay AID1508587 (Peter MacCallum Cancer Centre, 2020)
Aim: 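Knockdowns that add to vemurafenib's cut in melanoma glycolysis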 (follow-up of hits). System: human WM266.4 melanoma cells with a BRAF V600 mutation. Reagent: single siRNA against human genes, 25 nM. Timing: 96 h. Challenge: vemurafenib 300 nM (about IC25), given 48 h after transfection for 48 h. Measurement: 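Medium lactate read by absorbance over DAPI-counted nuclei; ratio with versus without vemurafenib, set against non-targeting siRNA, averaged over 2 replicates; cell number also recorded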. Reading the numbers: lactate per cell, drug vs no drug: higher = less drug-induced drop in lactate per cell; lactate per cell with vemurafenib: higher = more lactate per cell under drug. Rule for the call: 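Enhancer call for any duplex whose drug versus no-drug per-cell lactate ratio is below 0.55 (2 SD beneath non-targeting average); genes confirmed when at least 2 of their 4 duplexes qualify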.
Shown is one part, drawn at random, of about 1,600 deposited reagents. 623 of them (39%) were called active. 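Calls are for each duplex; lactate ratios contain extreme outliers.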 Entries without a mark were called inactive. The numbers tell different reagents against one gene apart. Not all columns of the deposit are shown.

gene symbol | reagent | lactate per cell, drug vs no drug | lactate per cell with vemurafenib
GPR157 (G protein-coupled receptor 157) | 1 | 0.58 | 1.55
GPR157 (G protein-coupled receptor 157) | 2 | 0.3 (active) | 0.2
GPR157 (G protein-coupled receptor 157) | 3 | 0.8 | 4.66
GPR157 (G protein-coupled receptor 157) | 4 | 0.76 | 1.08
ZNF675 (zinc finger protein 675) | 1 | 0.67 | 0.66
ZNF675 (zinc finger protein 675) | 2 | 0.59 | 0.79
ZNF675 (zinc finger protein 675) | 3 | 0.54 (active) | 1
ZNF675 (zinc finger protein 675) | 4 | 0.3 (active) | 0.74
KLK14 (kallikrein related peptidase 14) | 1 | 0.4 (active) | 1.25
KLK14 (kallikrein related peptidase 14) | 2 | 0.39 (active) | 0.46
KLK14 (kallikrein related peptidase 14) | 3 | 0.6 | 1.47
KLK14 (kallikrein related peptidase 14) | 4 | 0.44 (active) | 1.33
PFDN6 (prefoldin subunit 6) | 1 | 0.94 | 3.88
PFDN6 (prefoldin subunit 6) | 2 | 0.7 | 0.8
PFDN6 (prefoldin subunit 6) | 3 | 0.17 (active) | 0.28
PFDN6 (prefoldin subunit 6) | 4 | 0.92 | 3
FRG1 (FSHD region gene 1) | 1 | 1.16 | 1.97
FRG1 (FSHD region gene 1) | 2 | 0.55 | 1.48
FRG1 (FSHD region gene 1) | 3 | 0.57 | 0.92
FRG1 (FSHD region gene 1) | 4 | 0.75 | 1.68

Reagents listed above with an active call:
gene symbol | reagent | lactate per cell, drug vs no drug | lactate per cell with vemurafenib
GPR157 (G protein-coupled receptor 157) | 2 | 0.3 (active) | 0.2
ZNF675 (zinc finger protein 675) | 3 | 0.54 (active) | 1
ZNF675 (zinc finger protein 675) | 4 | 0.3 (active) | 0.74
KLK14 (kallikrein related peptidase 14) | 1 | 0.4 (active) | 1.25
KLK14 (kallikrein related peptidase 14) | 2 | 0.39 (active) | 0.46
KLK14 (kallikrein related peptidase 14) | 4 | 0.44 (active) | 1.33
PFDN6 (prefoldin subunit 6) | 3 | 0.17 (active) | 0.28
